Reference: PubChem BioAssay AID720505 (Drosophila RNAi Screening Center, 2013)
Assay: 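Fly regulators or components of the CRAC channel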 (primary screen). System: Drosophila S2R+ cells. Reagents: long dsRNA against Drosophila genes. Treatment: thapsigargin (2 µM) in calcium-free buffer to empty internal stores, then 2 mM calcium added back. Detection: 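Fluo-4 signal in 384-well plates read on a FLIPR after thapsigargin (2 µM, calcium-free) store depletion and 2 mM calcium add-back; unnormalised mean endpoint per well; screen run twice, selected wells retested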. Direction: calcium signal: higher = more calcium entry after store depletion. Active means: 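Knock-downs counted as hits when calcium entry dropped relative to STIM1 positive and Rho1 negative controls present on each plate; roughly 1500 genes called, with reductions of differing size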. Meaning of the calls: active = called as lowering calcium entry; inactive = not called.
In all, the deposit lists about 20,000 reagents; below is an unselected part of those that have a named target and a result. Over the whole deposit, about 2,100 (10%) were called active. 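Raw plate signals without normalisation; calls rest on control-based scores that were not deposited; replicate 2 separates called from uncalled poorly.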 Entries without a mark were called inactive. Reagents against one gene are numbered here. Not stated in the record: the amount of reagent, the time to read-out.

Snp #1 showed calcium signal, replicate 1 = 71.9; calcium signal, replicate 2 = 178.
With knock-down of Snp #2 the results were calcium signal, replicate 1 = 224; calcium signal, replicate 2 = 101.
CG9400 showed calcium signal, replicate 1 = 128 (active); calcium signal, replicate 2 = 61.1.
Or7a showed calcium signal, replicate 1 = 173; calcium signal, replicate 2 = 124.
With knock-down of Ehbp1 the results were calcium signal, replicate 1 = 144; calcium signal, replicate 2 = 79.7.
Rbp6 #1 scored calcium signal, replicate 1 = 81.3; calcium signal, replicate 2 = 131.
After knock-down of Rbp6 #2, the record shows calcium signal, replicate 1 = 88.6; calcium signal, replicate 2 = 131.
For Rbp6 #3, the values are calcium signal, replicate 1 = 107; calcium signal, replicate 2 = 141.
After knock-down of Hmbs the results were calcium signal, replicate 1 = 134; calcium signal, replicate 2 = 171.
For M6, the values are calcium signal, replicate 1 = 111; calcium signal, replicate 2 = 195.
For Oat the deposit lists calcium signal, replicate 1 = 102; calcium signal, replicate 2 = 107.
kek1 showed calcium signal, replicate 1 = 138; calcium signal, replicate 2 = 173.

Part of the list above, reformatted.
Target gene | reagent | calcium signal, replicate 1 | calcium signal, replicate 2
Snp | 2 | 224 | 101
CG9400 | 1 | 128 (active) | 61.1

Next reagents:
egg #1 gave calcium signal, replicate 1 = 53.6 (active); calcium signal, replicate 2 = 157.
Knock-down of egg #2 resulted in: calcium signal, replicate 1 = 112; calcium signal, replicate 2 = 105.
For aft, the values are calcium signal, replicate 1 = 150; calcium signal, replicate 2 = 124.
With knock-down of Blos3 the results were calcium signal, replicate 1 = 97.2; calcium signal, replicate 2 = 94.4.
Silencing of Prp18 came out at: calcium signal, replicate 1 = 121; calcium signal, replicate 2 = 135.
Against CG7857 the deposit lists calcium signal, replicate 1 = 109; calcium signal, replicate 2 = 133.
CG6901 scored calcium signal, replicate 1 = 106; calcium signal, replicate 2 = 153.
